Experimental data reported in PubChem BioAssay AID1918944 (Molecular Pharmacology Branch, DTP, NCI, 2023).
Values joined by “and” are separate entries in the source; they are usually repeats but may differ in a detail not shown here. Identical values can stand only once. The source gives many values for each of these; only a part stands here.

Test system: 786-0 complex spheroid viability
Assay: Anticancer human tumor 786-0 cell line growth inhibition;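 also: spheroids exposed to agents for seven days before readout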
Conditions: stronger effect = lower value
From the text: Multicellular complex tumor spheroid response to LSD1 Inhibitor Iadademstat in combination with a variety of drugs and investigational agents in selected tumor cell lines
The current study was undertaken to assess response to LSD1 inhibitors in combination with standard-of-care drugs and investigational agents in solid tumor complex spheroid models as well as in the K-562 leukemia. Complex spheroids include a stromal component modeled by human endothelial cells (HUVEC) and fibroblasts modeled by human mesenchymal stem cells (MSCs). The concentration ranges selected for each drug and investigational agent were based upon clinically achievable concentrations if the clinical Cmax of the agent was known.
Compounds. The drugs and investigational agents used in this study are listed on Table 1. All of the agents used, including staurosporine (NSC755774) and gemcitabine (NSC613327), were obtained from the Developmental Therapeutics Program, NCI. FDA-approved anticancer drugs are available from the NCI at http://dtp.nci.nih.gov/branches/dscb/oncology_drugset_explanation.html. Drugs and investigational agents were >95% pure by proton nuclear magnetic resonance (NMR) and liquid chromatography/mass spectrometry (LC/MS). […] If the clinical Cmax for an agent had not been determined, the highest concentration tested was 10 microM. […]

`NC1CCC(NC2CC2c2ccccc2)CC1` (configuration not stated) was tested. Which viability, T/C (compound 0.316 µM) did it give?
The viability, T/C was 118% [middle of 22 runs].

And the viability, T/C (compound 10 µM)?
Its viability, T/C is 80.6% and 82%.
